Source: paper PMC5327758
Results are given in words; binding and its absence hold for the method and conditions named. Binding seen in cells or lysates may run through a third protein. Some results given as binding are weak or reduced against the parent protein; the word gives no strength. For some of these results: Tags and fused reporters may be left off the sequences shown.

The chains behind the UniProt entries cited, without tags or fusion partners.
UniProt Q92831: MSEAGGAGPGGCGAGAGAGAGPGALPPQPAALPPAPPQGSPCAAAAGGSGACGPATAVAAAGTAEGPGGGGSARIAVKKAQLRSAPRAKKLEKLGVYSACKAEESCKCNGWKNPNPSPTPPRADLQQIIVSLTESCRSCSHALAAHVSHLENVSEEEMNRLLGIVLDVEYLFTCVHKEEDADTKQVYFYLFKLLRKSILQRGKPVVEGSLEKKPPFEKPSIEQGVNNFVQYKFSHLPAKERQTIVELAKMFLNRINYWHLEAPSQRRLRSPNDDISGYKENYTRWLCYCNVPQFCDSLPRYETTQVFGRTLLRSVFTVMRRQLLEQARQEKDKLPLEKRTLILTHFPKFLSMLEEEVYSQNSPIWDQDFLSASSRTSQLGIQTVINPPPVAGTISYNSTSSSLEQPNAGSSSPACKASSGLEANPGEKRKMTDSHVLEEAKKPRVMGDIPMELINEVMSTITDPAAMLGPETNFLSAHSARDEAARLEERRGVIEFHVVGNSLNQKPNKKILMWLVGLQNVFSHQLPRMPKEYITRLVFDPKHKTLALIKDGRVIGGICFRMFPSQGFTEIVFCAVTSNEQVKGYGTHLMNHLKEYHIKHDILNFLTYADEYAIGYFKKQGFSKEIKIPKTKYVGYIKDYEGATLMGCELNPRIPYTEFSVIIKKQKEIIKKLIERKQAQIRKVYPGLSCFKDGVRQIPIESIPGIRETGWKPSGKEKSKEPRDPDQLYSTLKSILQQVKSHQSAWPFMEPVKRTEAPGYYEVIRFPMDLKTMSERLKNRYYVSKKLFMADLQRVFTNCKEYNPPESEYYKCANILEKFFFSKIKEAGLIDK

Columns and labels:
[1] = biological target: WT Flag-pCAF (p300/CBP associated factor) (UniProt Q92831); test: co-IP; COS cells cotransfected with Myc-CIITA and Flag-pCAF; lysed in 1% NP40 buffer, precleared; immunoprecipitated with anti-Flag (control Mouse IgG), immunoblotted with anti-Myc
[2] = biological target: WT Flag-pCAF (p300/CBP associated factor) (UniProt Q92831); test: co-IP; COS cells cotransfected with CIITA (WT or K141R, K144R, K141/144R) and Flag-pCAF; lysed in 1% NP40 buffer, precleared; immunoprecipitated with anti-Myc or Mouse IgG, immunoblotted with anti-Myc (as the legend prints)

Binder | binding [1] | binding [2]
WT Myc-CIITA (Class II Transactivator) (protein, UniProt P33076 1-1130) MRCLAPRPAGSYLSEPQGSSQCATMELGPLEGGYLELLNSDADPLCLYHFYDQMDLAGEEEIELYSEPDTDTINCDQFSRLLCDMEGDEETREAYANIAELDQYVFQDSQLEGLSKDIFKHIGPDEVIGESMEMPAEVGQKSQKRPFPEELPADLKHWKPAEPPTVVTGSLLVGPVSDCSTLPCLPLPALFNQEPASGQMRLEKTDQIPMPFSSSSLSCLNLPEGPIQFVPTISTLPHGLWQISEAGTGVSSIFIYHGEVPQASQVPPPSGFTVHGLPTSPDRPGSTSPFAPSATDLPSMPEPALTSRANMTEHKTSPTQCPAAGEVSNKLPKWPEPVEQFYRSLQDTYGAEPAGPDGILVEVDLVQARLERSSSKSLERELATPDWAERQLAQGGLAEVLLAAKEHRRPRETRVIAVLGKAGQGKSYWAGAVSRAWACGRLPQYDFVFSVPCHCLNRPGDAYGLQDLLFSLGPQPLVAADEVFSHILKRPDRVLLILDGFEELEAQDGFLHSTCGPAPAEPCSLRGLLAGLFQKKLLRGCTLLLTARPRGRLVQSLSKADALFELSGFSMEQAQAYVMRYFESSGMTEHQDRALTLLRDRPLLLSHSHSPTLCRAVCQLSEALLELGEDAKLPSTLTGLYVGLLGRAALDSPPGALAELAKLAWELGRRHQSTLQEDQFPSADVRTWAMAKGLVQHPPRAAESELAFPSFLLQCFLGALWLALSGEIKDKELPQYLALTPRKKRPYDNWLEGVPRFLAGLIFQPPARCLGALLGPSAAASVDRKQKVLARYLKRLQPGTLRARQLLELLHCAHEAEEAGIWQHVVQELPGRLSFLGTRLTPPDAHVLGKALEAAGQDFSLDLRSTGICPSGLGSLVGLSCVTRFRAALSDTVALWESLQQHGETKLLQAAEEKFTIEPFKAKSLKDVEDLGKLVQTQRTRSSSEDTAGELPAVRDLKKLEFALGPVSGPQAFPKLVRILTAFSSLQHLDLDALSENKIGDEGVSQLSATFPQLKSLETLNLSQNNITDLGAYKLAEALPSLAASLLRLSLYNNCICDVGAESLARVLPDMVSLRVMDVQYNKFTAAGAQQLAASLRRCPHVETLAMWTPTIPFSVQEHLQQQDSRISLR | binds | 
K141R CIITA (protein, UniProt P33076 1-1130) MRCLAPRPAGSYLSEPQGSSQCATMELGPLEGGYLELLNSDADPLCLYHFYDQMDLAGEEEIELYSEPDTDTINCDQFSRLLCDMEGDEETREAYANIAELDQYVFQDSQLEGLSKDIFKHIGPDEVIGESMEMPAEVGQRSQKRPFPEELPADLKHWKPAEPPTVVTGSLLVGPVSDCSTLPCLPLPALFNQEPASGQMRLEKTDQIPMPFSSSSLSCLNLPEGPIQFVPTISTLPHGLWQISEAGTGVSSIFIYHGEVPQASQVPPPSGFTVHGLPTSPDRPGSTSPFAPSATDLPSMPEPALTSRANMTEHKTSPTQCPAAGEVSNKLPKWPEPVEQFYRSLQDTYGAEPAGPDGILVEVDLVQARLERSSSKSLERELATPDWAERQLAQGGLAEVLLAAKEHRRPRETRVIAVLGKAGQGKSYWAGAVSRAWACGRLPQYDFVFSVPCHCLNRPGDAYGLQDLLFSLGPQPLVAADEVFSHILKRPDRVLLILDGFEELEAQDGFLHSTCGPAPAEPCSLRGLLAGLFQKKLLRGCTLLLTARPRGRLVQSLSKADALFELSGFSMEQAQAYVMRYFESSGMTEHQDRALTLLRDRPLLLSHSHSPTLCRAVCQLSEALLELGEDAKLPSTLTGLYVGLLGRAALDSPPGALAELAKLAWELGRRHQSTLQEDQFPSADVRTWAMAKGLVQHPPRAAESELAFPSFLLQCFLGALWLALSGEIKDKELPQYLALTPRKKRPYDNWLEGVPRFLAGLIFQPPARCLGALLGPSAAASVDRKQKVLARYLKRLQPGTLRARQLLELLHCAHEAEEAGIWQHVVQELPGRLSFLGTRLTPPDAHVLGKALEAAGQDFSLDLRSTGICPSGLGSLVGLSCVTRFRAALSDTVALWESLQQHGETKLLQAAEEKFTIEPFKAKSLKDVEDLGKLVQTQRTRSSSEDTAGELPAVRDLKKLEFALGPVSGPQAFPKLVRILTAFSSLQHLDLDALSENKIGDEGVSQLSATFPQLKSLETLNLSQNNITDLGAYKLAEALPSLAASLLRLSLYNNCICDVGAESLARVLPDMVSLRVMDVQYNKFTAAGAQQLAASLRRCPHVETLAMWTPTIPFSVQEHLQQQDSRISLR |  | binds
K144R CIITA (protein, UniProt P33076 1-1130) MRCLAPRPAGSYLSEPQGSSQCATMELGPLEGGYLELLNSDADPLCLYHFYDQMDLAGEEEIELYSEPDTDTINCDQFSRLLCDMEGDEETREAYANIAELDQYVFQDSQLEGLSKDIFKHIGPDEVIGESMEMPAEVGQKSQRRPFPEELPADLKHWKPAEPPTVVTGSLLVGPVSDCSTLPCLPLPALFNQEPASGQMRLEKTDQIPMPFSSSSLSCLNLPEGPIQFVPTISTLPHGLWQISEAGTGVSSIFIYHGEVPQASQVPPPSGFTVHGLPTSPDRPGSTSPFAPSATDLPSMPEPALTSRANMTEHKTSPTQCPAAGEVSNKLPKWPEPVEQFYRSLQDTYGAEPAGPDGILVEVDLVQARLERSSSKSLERELATPDWAERQLAQGGLAEVLLAAKEHRRPRETRVIAVLGKAGQGKSYWAGAVSRAWACGRLPQYDFVFSVPCHCLNRPGDAYGLQDLLFSLGPQPLVAADEVFSHILKRPDRVLLILDGFEELEAQDGFLHSTCGPAPAEPCSLRGLLAGLFQKKLLRGCTLLLTARPRGRLVQSLSKADALFELSGFSMEQAQAYVMRYFESSGMTEHQDRALTLLRDRPLLLSHSHSPTLCRAVCQLSEALLELGEDAKLPSTLTGLYVGLLGRAALDSPPGALAELAKLAWELGRRHQSTLQEDQFPSADVRTWAMAKGLVQHPPRAAESELAFPSFLLQCFLGALWLALSGEIKDKELPQYLALTPRKKRPYDNWLEGVPRFLAGLIFQPPARCLGALLGPSAAASVDRKQKVLARYLKRLQPGTLRARQLLELLHCAHEAEEAGIWQHVVQELPGRLSFLGTRLTPPDAHVLGKALEAAGQDFSLDLRSTGICPSGLGSLVGLSCVTRFRAALSDTVALWESLQQHGETKLLQAAEEKFTIEPFKAKSLKDVEDLGKLVQTQRTRSSSEDTAGELPAVRDLKKLEFALGPVSGPQAFPKLVRILTAFSSLQHLDLDALSENKIGDEGVSQLSATFPQLKSLETLNLSQNNITDLGAYKLAEALPSLAASLLRLSLYNNCICDVGAESLARVLPDMVSLRVMDVQYNKFTAAGAQQLAASLRRCPHVETLAMWTPTIPFSVQEHLQQQDSRISLR |  | binds
K141/144R CIITA (protein, UniProt P33076 1-1130) MRCLAPRPAGSYLSEPQGSSQCATMELGPLEGGYLELLNSDADPLCLYHFYDQMDLAGEEEIELYSEPDTDTINCDQFSRLLCDMEGDEETREAYANIAELDQYVFQDSQLEGLSKDIFKHIGPDEVIGESMEMPAEVGQRSQRRPFPEELPADLKHWKPAEPPTVVTGSLLVGPVSDCSTLPCLPLPALFNQEPASGQMRLEKTDQIPMPFSSSSLSCLNLPEGPIQFVPTISTLPHGLWQISEAGTGVSSIFIYHGEVPQASQVPPPSGFTVHGLPTSPDRPGSTSPFAPSATDLPSMPEPALTSRANMTEHKTSPTQCPAAGEVSNKLPKWPEPVEQFYRSLQDTYGAEPAGPDGILVEVDLVQARLERSSSKSLERELATPDWAERQLAQGGLAEVLLAAKEHRRPRETRVIAVLGKAGQGKSYWAGAVSRAWACGRLPQYDFVFSVPCHCLNRPGDAYGLQDLLFSLGPQPLVAADEVFSHILKRPDRVLLILDGFEELEAQDGFLHSTCGPAPAEPCSLRGLLAGLFQKKLLRGCTLLLTARPRGRLVQSLSKADALFELSGFSMEQAQAYVMRYFESSGMTEHQDRALTLLRDRPLLLSHSHSPTLCRAVCQLSEALLELGEDAKLPSTLTGLYVGLLGRAALDSPPGALAELAKLAWELGRRHQSTLQEDQFPSADVRTWAMAKGLVQHPPRAAESELAFPSFLLQCFLGALWLALSGEIKDKELPQYLALTPRKKRPYDNWLEGVPRFLAGLIFQPPARCLGALLGPSAAASVDRKQKVLARYLKRLQPGTLRARQLLELLHCAHEAEEAGIWQHVVQELPGRLSFLGTRLTPPDAHVLGKALEAAGQDFSLDLRSTGICPSGLGSLVGLSCVTRFRAALSDTVALWESLQQHGETKLLQAAEEKFTIEPFKAKSLKDVEDLGKLVQTQRTRSSSEDTAGELPAVRDLKKLEFALGPVSGPQAFPKLVRILTAFSSLQHLDLDALSENKIGDEGVSQLSATFPQLKSLETLNLSQNNITDLGAYKLAEALPSLAASLLRLSLYNNCICDVGAESLARVLPDMVSLRVMDVQYNKFTAAGAQQLAASLRRCPHVETLAMWTPTIPFSVQEHLQQQDSRISLR |  | binds
